# Percent effect of library compounds

By UniProt entry, the sequences of proteins in these tests, tags left out. Residues count along the entry.
UniProt A4I591, 1-473: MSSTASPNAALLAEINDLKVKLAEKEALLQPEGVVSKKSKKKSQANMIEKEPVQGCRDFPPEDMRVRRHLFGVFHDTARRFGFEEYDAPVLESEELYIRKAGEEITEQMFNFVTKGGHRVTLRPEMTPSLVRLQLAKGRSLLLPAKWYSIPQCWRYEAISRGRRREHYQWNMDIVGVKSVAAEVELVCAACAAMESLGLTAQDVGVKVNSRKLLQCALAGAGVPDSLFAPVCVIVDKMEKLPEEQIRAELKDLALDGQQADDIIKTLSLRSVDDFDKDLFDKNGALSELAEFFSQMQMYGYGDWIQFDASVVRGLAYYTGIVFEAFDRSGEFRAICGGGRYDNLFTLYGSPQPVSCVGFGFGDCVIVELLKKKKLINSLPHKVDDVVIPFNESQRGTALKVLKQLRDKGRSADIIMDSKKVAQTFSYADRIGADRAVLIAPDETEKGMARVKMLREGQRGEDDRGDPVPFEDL
UniProt P9WNZ1, whole entry: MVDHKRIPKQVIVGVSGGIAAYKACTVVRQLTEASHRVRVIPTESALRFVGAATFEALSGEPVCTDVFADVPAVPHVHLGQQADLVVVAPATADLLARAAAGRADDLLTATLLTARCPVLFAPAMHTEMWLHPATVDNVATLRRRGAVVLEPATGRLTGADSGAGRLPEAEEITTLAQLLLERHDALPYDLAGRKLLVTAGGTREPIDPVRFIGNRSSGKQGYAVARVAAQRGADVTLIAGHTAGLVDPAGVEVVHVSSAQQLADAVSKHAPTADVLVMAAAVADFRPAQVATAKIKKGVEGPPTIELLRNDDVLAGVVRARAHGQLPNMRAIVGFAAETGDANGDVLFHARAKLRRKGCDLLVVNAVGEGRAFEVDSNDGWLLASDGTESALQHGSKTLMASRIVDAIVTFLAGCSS

Data taken from ChEMBL document CHEMBL3988442, “University of Dundee, Small-Polar-MMV Screening Library” (2021).

A: 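Enzyme assay of histidyl-tRNA synthetase; the read-out is not stated. Target: Histidine-tRNA ligase, Leishmania infantum (UniProt A4I591). Tested at 30 µM. The record gives no direction; compounds that gave an IC50 in retests scored well above the rest, so higher reads as stronger inhibition. The assay is labelled LdHisRS but filed under L. infantum. Size under these conditions: about 69,000 compounds, about 410 of them at 50% or above in at least one test.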
B: 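Cell assay of Leishmania donovani living inside macrophages; the read-out is not stated. Concentration: 30 µM. The record gives no direction; compounds that gave an IC50 in retests scored well above the rest, so higher reads as stronger inhibition. About 69,000 compounds were tested under these conditions; 1.5% (about 1,000) showed 50% or more at least once.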
C: 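Coenzyme A biosynthesis protein CoaBC, Mycobacterium tuberculosis (UniProt P9WNZ1). Enzyme assay of CoaBC with a phosphate dye (Biomol Green) read at 650 nm. Compounds at 30 µM. Direction is inferred from only a few compounds that gave an IC50; most scored high, so higher reads as stronger inhibition. Most strong results did not repeat in a second test. About 67,000 compounds were tested under these conditions; 0.06% (about 40) showed 50% or more at least once.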

Results are given as percent effect. The controls that fix the scale are not given in the record; negative values are as filed. The compounds are a random part of those screened. A dash means the value is not listed here; it may have been measured.

{"structure": "CCc1nc(C2CCCN2CC(=O)Nc2c(C)nn(C)c2C)no1", "stereo": "stereo unspecified", "A": 11.54, "B": 5.262, "C": -6.183}
{"structure": "CC(=O)N1CCC2(CCN(Cc3ccccn3)C2=O)C1", "stereo": "stereo unspecified", "A": 4.425, "C": -7.431}
{"structure": "CN(C)[C@H]1CCN(c2nc(C(C)(C)C)nc3c2cnn3C)C1", "A": 19.35, "B": 22.03, "C": -0.4914}
{"structure": "O=C(O)C(F)(F)F.[H][C@@]12C[C@H](C(=O)NCc3ccccc3)[C@@]([H])(CN(CCC(C)C)C1)O2", "B": 27}
{"structure": "O=C(c1ccc2[nH]c(=O)[nH]c2c1)N1CCC(Nc2cccnn2)CC1", "A": -1.739, "B": -0.4678, "C": -0.129}
{"structure": "Cc1cnc2c(C(=O)N(C)Cc3cc(C4CC4)[nH]n3)cnn2c1", "A": 7.143, "B": -3.434, "C": 1.942}
{"structure": "Cc1nnc2n1CCN(Cc1ccc3c(c1)OCCO3)C2", "A": 18.35, "B": 2.739, "C": 8.842}
{"structure": "Cc1ccc(OCC(=O)NS(=O)(=O)Cc2ccccc2)cc1", "A": 14.29, "B": -5.501, "C": 16.2}
{"structure": "NC(=O)c1cc(CC2CCCN(c3cnccn3)C2)ncn1", "stereo": "stereo unspecified", "A": 15.6, "B": -20.33, "C": -4.294}
{"structure": "CN1CC2(CCN(Cc3cccnc3)CC2)c2cccc(F)c21", "A": 10, "C": -19.47}
{"structure": "O=C(NCCN1CCCCCC1=O)NCc1ccc(Cl)s1", "A": -3.226, "B": 18.36, "C": -0.3636}
{"structure": "Cc1cc(CNC(=O)CCc2ccc(S(N)(=O)=O)cc2)no1", "A": 19.18, "B": 0.9802, "C": 5.165}
{"structure": "COc1ccc(CN2CCC3(CC2)CC(CC(=O)NC(C)C)CO3)cc1.O=C(O)C(F)(F)F", "stereo": "stereo unspecified", "B": 8.835}
{"structure": "O=C(c1cccc2c1OCO2)N1CCC(N2CCCC2)CC1", "A": 25.66, "B": 19.04, "C": 3.505}
{"structure": "CC(C)OCCCNC(=O)N(C)C(C)c1ccc(-n2cncn2)cc1", "stereo": "stereo unspecified", "A": 15.49, "B": 7.768}
{"structure": "O=C(c1cccnc1SC/C=C/c1ccccc1)N1CC[C@H](O)C1", "A": 27.4, "B": -14.75, "C": 13.45}
{"structure": "Cc1nn(C)c(N(C)C)c1CNCc1nnc2n1CCCCC2.Cl", "B": 4.26}
{"structure": "CS(=O)(=O)c1ccc(CNC2CCCN(c3cccnn3)C2)cc1", "stereo": "stereo unspecified", "A": 21.33, "B": 27.8, "C": 4.103}
{"structure": "CO[C@@H]1CCN(C(=O)c2cnoc2C)[C@H]1Cc1ccccc1", "A": -1, "B": -4.569, "C": -0.8653}
{"structure": "O=C(C1CC1)N1CCC2(CC1)COCCN2Cc1ccc(F)cc1.O=C(O)C(F)(F)F", "B": 2.017}
{"structure": "Cc1nsc(N2CCCN(C(=O)CCc3ccsc3)CC2)n1", "A": 4.145, "B": -12.38, "C": -0.3822}
{"structure": "O=C(C1CCOCC1)N1CCc2ncc(CN3CCCCC3)n2CC1", "A": 16, "B": 40.77, "C": -1.5}
{"structure": "O=S(=O)(NCCSc1nncn1C1CC1)c1ccccc1", "A": 11.86, "B": -48.45, "C": 3.137}
{"structure": "COc1cc(CNCc2c(C)nn(CC(C)C)c2N(C)C)ccn1", "A": 14.29, "B": 6.661, "C": 9.649}
{"structure": "CN(C)c1ccc(NC(=O)NCc2ccc(Cl)s2)cn1", "A": 21.92, "B": 23.93, "C": -1.195}
{"structure": "Cc1nccc(-c2ccccc2)c1C(=O)N1CCC2(CC(=O)NC2=O)C1", "stereo": "stereo unspecified", "A": 15.49, "B": 8.451, "C": 11.44}
{"structure": "CCn1c(C(=O)N2CCCN(CC(N)=O)CC2)cc2ccccc21", "A": 11.54, "B": 11.63, "C": 2.867}
{"structure": "O=C(NCC1CC1)C1CN(C(=O)c2cccc(Cl)c2)CC12CCOCC2", "stereo": "stereo unspecified", "A": -177.7, "B": -14.12, "C": 3.169}
{"structure": "CS(=O)(=O)NC[C@]12COC[C@H]1CN(C(=O)CCc1ccccc1)C2", "A": 9.735, "C": -2.316}
{"structure": "Cc1cccc(C(=O)N2CCN(C(=O)Cc3ccccn3)CC2)c1C", "A": 6.087, "B": 27.59, "C": 7.506}

The last 2 entries again:

structure,A,B,C
CS(=O)(=O)NC[C@]12COC[C@H]1CN(C(=O)CCc1ccccc1)C2,9.735%,-,-2.316%
Cc1cccc(C(=O)N2CCN(C(=O)Cc3ccccn3)CC2)c1C,6.087%,27.59%,7.506%